Measurements: patent publication US20140093973A1

Legend:
[1] = biological target: soluble HLA-A*1102 (sHLA-A*1102) (human); test: FP screen of 53 sHLA with FITC-peptide
[2] = biological target: soluble HLA-A*4301 (sHLA-A*4301) (human); test: FP screen of 53 sHLA with FITC-peptide
[3] = biological target: soluble HLA-A*4301 (sHLA-A*4301) (human); test: FP screen of 53 sHLA
[4] = biological target: soluble HLA-A*6801 (sHLA-A*6801) (human); test: FP screen of 53 sHLA with FITC-peptide
[5] = biological target: soluble HLA-A*1102 (sHLA-A*1102) (human); test: FP screen of 53 sHLA
[6] = biological target: soluble HLA-B*1501 (human); test: FP screen
[7] = biological target: soluble HLA-A*2601 (human); test: FP screen of 53 sHLA

Row | Binder | binding [1] | binding [4] | binding [5] | also measured
1 | YTDGVPLKY (FITC-labeled (position not given)) | binds |  |  | binding [2]: binds; binding [3]: binds
2 | KVFPKALINK (FITC-labeled (position not given)) | binds | binds | binds | 
3 | SLFRAVIKK (FITC-labeled (position not given)) | binds | binds | binds | 
4 | KYPENKFLL (FITC-labeled (position not given)) […, FITC-labeled A24-like peptide] |  |  |  | binding [6]: no binding (tested: 100 ug/ml sHLA)
5 | YLEPAKAKY (FITC-labeled (position not given)) |  |  |  | binding [7]: binds

Results are given in words; binding and its absence hold for the method and conditions named. For some assays here: Binding calls can cover weak binding; strength is not graded here.
